Reference: patent US20190255087A1, “ENCAPSULATION AND HIGH LOADING EFFICIENCY OF PHOSPHORYLATED DRUG AND IMAGING AGENTS IN NANOPARTICLES” (THE PENN STATE RESEARCH FOUNDATION, priority 2016, published 2019)
The name of at least one read-out is uncertain.

Assay: Drug concentration and percent recovery in PEGylated CPSNPs by LC-MS/MS
Type: physicochemical

## O=c1[nH]c(=O)n([C@H]2C[C@H](O)[C@@H](COP(=O)(O)O)O2)cc1F [FdUMP, 5-fluoro-2′-deoxyuridine 5′-monophosphate]
  Recovery of FdUMP after PEGylating the Cit-FdUMP-CPSNPs (mean): 30 (±9) mol %
